Measured values taken from paper doi:10.1101/2021.05.25.445547.
Like-named read-outs stand apart in the source and are kept apart here. These are yes or no findings as the source states them, for the method shown. Some results given as binding are weak or reduced against the parent protein; the word gives no strength. For some assays here: Sequences can lack the tags named with a protein. Blank lines part the entries; values can stand above or below the molecule they belong to.

The chains behind the UniProt entries cited, without tags or fusion partners.
UniProt P62993, whole entry: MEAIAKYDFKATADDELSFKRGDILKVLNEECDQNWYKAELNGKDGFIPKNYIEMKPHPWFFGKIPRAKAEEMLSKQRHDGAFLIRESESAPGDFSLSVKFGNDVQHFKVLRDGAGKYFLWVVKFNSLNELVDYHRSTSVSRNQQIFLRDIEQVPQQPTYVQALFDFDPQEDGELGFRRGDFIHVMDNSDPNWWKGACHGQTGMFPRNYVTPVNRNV

Experiments:
[1] = molecular target: optimized bait-PAR-Grb2 with inserted flexible linker sequences, RFP-fused (UniProt P62993); assay: subcellular micropatterning
[2] = molecular target: optimized bait-PAR-Grb2 with inserted flexible linker sequences, RFP-fused (UniProt P62993); assay: subcellular micropatterning; remark: listed apart in the source

- binding [1]: no binding
Molecule: MEK1 (mitogen-activated protein kinase kinase 1), GFP-fused (from UniProt Q02750 1-393)

- binding [2]: binds
B1: Grb2-associated-binding protein 1 (Gab1), GFP-fused (protein, UniProt Q13480 1-694)
chain: MSGGEVVCSGWLRKSPPEKKLKRYAWKRRWFVLRSGRLTGDPDVLEYYKNDHAKKPIRIIDLNLCQQVDAGLTFNKKEFENSYIFDINTIDRIFYLVADSEEEMNKWVRCICDICGFNPTEEDPVKPPGSSLQAPADLPLAINTAPPSTQADSSSATLPPPYQLINVPPHLETLGIQEDPQDYLLLINCQSKKPEPTRTHADSAKSTSSETDCNDNVPSHKNPASSQSKHGMNGFFQQQMIYDSPPSRAPSASVDSSLYNLPRSYSHDVLPKVSPSSTEADGELYVFNTPSGTSSVETQMRHVSISYDIPPTPGNTYQIPRTFPEGTLGQTSKLDTIPDIPPPRPPKPHPAHDRSPVETCSIPRTASDTDSSYCIPTAGMSPSRSNTISTVDLNKLRKDASSQDCYDIPRAFPSDRSSSLEGFHNHFKVKNVLTVGSVSSEELDENYVPMNPNSPPRQHSSSFTEPIQEANYVPMTPGTFDFSSFGMQVPPPAHMGFRSSPKTPPRRPVPVADCEPPPVDRNLKPDRKVKPAPLEIKPLPEWEELQAPVRSPITRSFARDSSRFPMSPRPDSVHSTTSSSDSHDSEENYVPMNPNLSSEDPNLFGSNSLDGGSSPMIKPKGDKQVEYLDLDLDSGKSTPPRKQKSSGSGSSVADERVDYVVVDQQKTLALKSTREAWTDGRQSTESETPAKSVK
